According to paper PMC3694847:
These are yes or no findings as the source states them, for the method shown. Binding seen in cells or lysates may run through a third protein. Some results given as binding are weak or reduced against the parent protein; the word gives no strength.

Sequences of proteins named here, by UniProt entry; tags and fusion partners are left off.
UniProt O88522: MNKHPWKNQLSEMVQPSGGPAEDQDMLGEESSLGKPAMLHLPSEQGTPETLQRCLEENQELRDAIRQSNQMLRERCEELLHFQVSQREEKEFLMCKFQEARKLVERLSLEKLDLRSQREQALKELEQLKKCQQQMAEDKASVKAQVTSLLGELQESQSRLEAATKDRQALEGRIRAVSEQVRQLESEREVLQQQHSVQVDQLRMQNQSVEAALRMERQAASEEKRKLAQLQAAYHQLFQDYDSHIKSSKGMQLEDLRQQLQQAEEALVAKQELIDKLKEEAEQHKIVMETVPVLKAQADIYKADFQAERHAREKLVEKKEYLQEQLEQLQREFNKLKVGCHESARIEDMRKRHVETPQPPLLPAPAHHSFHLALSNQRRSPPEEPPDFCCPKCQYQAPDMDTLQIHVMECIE

Experiments:
[1] = molecular target: endogenous NEMO (MEF cells) (mouse (endogenous in MEF)) (UniProt O88522); assay: co-IP; endogenous proteins; MEF lysates after mock or LPS (1 µg/ml) stimulation; IP with anti-NEMO antibody or IgG, blot with anti-CYLD; control cells
[2] = molecular target: endogenous NEMO (MEF cells) (mouse (endogenous in MEF)) (UniProt O88522); assay: co-IP; endogenous proteins; MEF lysates after mock or LPS (1 µg/ml) stimulation; IP with anti-NEMO antibody or IgG, blot with anti-CYLD; cells with SENP6 knocked down

binding [1]: binds
B1: endogenous CYLD (MEF cells) (enzyme, UniProt Q80TQ2-2 1-955)
chain: MSSGLWSQEKVTSPYWEERIFYLLLQECSVTDKQTQKLLKVPKGSIGQYIQDRSVGHSRVPSTKGKKNQIGLKILEQPHAVLFVDEKDVVEINEKFTELLLAITNCEERLSLFRNRLRLSKGLQVDVGSPVKVQLRSGEEKFPGVVRFRGPLLAERTVSGIFFGVELLEEGRGQGFTDGVYQGKQLFQCDEDCGVFVALDKLELIEDDDNGLESDFAGPGDTMQVEPPPLEINSRVSLKVGESTESGTVIFCDVLPGKESLGYFVGVDMDNPIGNWDGRFDGVQLCSFASVESTILLHINDIIPALSDSVTQERRPPKLAFMSRGVGDKGSSSHNKPKVTGSTSDPGSRNRSELFYTLNGSSVDSQQSKSKNPWYIDEVAEDPAKSLTEMSSDFGHSSPPPQPPSMNSLSSENRFHSLPFSLTKMPNTNGSMAHSPLSLSVQSVMGELNSTPVQESPPLPISSGNAHGLEVGSLAEVKENPPFYGVIRWIGQPPGLSDVLAGLELEDECAGCTDGTFRGTRYFTCALKKALFVKLKSCRPDSRFASLQPVSNQIERCNSLAFGGYLSEVVEENTPPKMEKEGLEIMIGKKKGIQGHYNSCYLDSTLFCLFAFSSALDTVLLRPKEKNDIEYYSETQELLRTEIVNPLRIYGYVCATKIMKLRKILEKVEAASGFTSEEKDPEEFLNILFHDILRVEPLLKIRSAGQKVQDCNFYQIFMEKNEKVGVPTIQQLLEWSFINSNLKFAEAPSCLIIQMPRFGKDFKLFKKIFPSLELNITDLLEDTPRQCRICGGLAMYECRECYDDPDISAGKIKQFCKTCSTQVHLHPRRLNHSYHPVSLPKDLPDWDWRHGCIPCQKMELFAVLCIETSHYVAFVKYGKDDSAWLFFDSMADRDGGQNGFNIPQVTPCPEVGEYLKMSLEDLHSLDSRRIQGCARRLLCDAYMCMYQSPTMSLYK
binding [2]: no binding (condition: SENP6 knock-down by siRNA)
